Data taken from PMC7115952.
No constants are given. Whether binding was seen depends on the method and setting. In cells and extracts the contact can be indirect. Some binding calls cover weakened binding; strength is not graded here.

Sequences of proteins named here, by UniProt entry; tags and fusion partners are left off. A change or cut given only in a name is not applied to a line headed by its entry. A line that says so, or that is headed by a name, gives the form on record, which may keep a tag or linker. Residues count along the entry.
GST–HsINCENP C-terminus (aa 820–918), wild type (Q9NQS7, residues 820-918): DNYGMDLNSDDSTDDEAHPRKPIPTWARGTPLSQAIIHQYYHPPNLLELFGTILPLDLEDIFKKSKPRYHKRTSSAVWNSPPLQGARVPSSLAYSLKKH
GST–HsINCENP C-terminus (aa 820–918) ST831EE (Q9NQS7, form named): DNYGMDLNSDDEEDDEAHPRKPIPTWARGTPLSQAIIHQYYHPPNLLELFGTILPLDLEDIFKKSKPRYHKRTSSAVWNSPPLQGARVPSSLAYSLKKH
GST–HsINCENP C-terminus (aa 820–918) ST831AA (Q9NQS7, form named): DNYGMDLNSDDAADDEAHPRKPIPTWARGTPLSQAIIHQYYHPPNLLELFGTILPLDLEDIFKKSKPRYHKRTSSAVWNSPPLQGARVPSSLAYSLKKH
UniProt Q96GD4: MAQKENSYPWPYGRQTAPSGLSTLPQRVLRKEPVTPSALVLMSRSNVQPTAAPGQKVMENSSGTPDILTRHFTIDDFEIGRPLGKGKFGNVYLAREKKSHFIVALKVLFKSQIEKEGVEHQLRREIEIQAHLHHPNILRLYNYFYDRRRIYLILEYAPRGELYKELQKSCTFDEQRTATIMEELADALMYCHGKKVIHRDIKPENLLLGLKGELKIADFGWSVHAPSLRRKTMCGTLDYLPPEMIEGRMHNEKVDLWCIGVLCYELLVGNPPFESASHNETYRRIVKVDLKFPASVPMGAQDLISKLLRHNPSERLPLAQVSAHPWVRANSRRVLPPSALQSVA

Legend:
Assay in all cases: pull-down; GST–HsINCENP C-terminus (aa 820–918) bound to glutathione–Sepharose beads, incubated with lysates of Sf9 cells producing His–HsAurora B, 2 h at 4°C then 30 min at room temperature; lysis buffer 50 mM Tris-HCl pH 8.0, NaCl, 1% NP-40, 0.5% sodium deoxycholate; immunoblot; only the target purified
[1] = biological target: GST–HsINCENP C-terminus (aa 820–918) ST831EE (human) (UniProt Q9NQS7)
[2] = biological target: GST–HsINCENP C-terminus (aa 820–918), wild type (human) (UniProt Q9NQS7)
[3] = biological target: GST–HsINCENP C-terminus (aa 820–918) ST831AA (human) (UniProt Q9NQS7)

Measured: binding

His–HsAurora B (from UniProt Q96GD4 1-344) (enzyme)
binds: all assays above
